Data on seven substances can be found in patent US10711041B2 (priority 2013, dated 2020).

One data set in a line: peptide synthesis. The following applies: whole synthesis, acetate salt.
For “Cyclo(CGQREAPAGAAAKPWYC) (cyclic; cyclic peptide with disulfide bridge; DISULFIDE (1)..(17))”, the “final HPLC purity” value came to 95%.

A further data set is described as follows: general procedure: Fmoc solid-phase peptide synthesis; 2-chlorotritylchloride resin; Diisopropyl carbodiimide and N-hydroxybenzotriazole. The note with it: whole synthesis, reverse HPLC, acetate salt.
Turning to Cyclo(ornithine-GQRETPEGAEAKPWYG), the “final HPLC purity” value is 97.4%.
Same read-out and setting: as for Cyclo(KSPGQRETPEGAEAKPWYE), the figure is 96.3%.
Still for that read-out and setting: the value for Cyclo(β-alanine-GQRETPEGAEAKPWYE) was 99%; that for “Cyclo(4-amino butyric acid-GQRETPEGAEAKPWYD)” was 99%; that for Cyclo(CGQRETPEGAEAKPWYC) was 96.3%.
The same measure, in the same setting: the value for Cyclo(KGQRETPEGAEAKPWYG) was 98.8%.
